# Some of the results follow.
# B1: Pwp6 (Candida glabrata) (protein)
# chain: MGSSHHHHHHSSGLVPRGSHMASANLPKLTNICQIPDNVKKTSGFKGEIRRIGLFPPGGDYTYLLKFPSTGSTASDTISLTTKPQLSTSGWFPSLFGHTYFIKADLLVYMVAYFVPTETGEYTFKLVNSDDAAVMYVGNPSAFPCGSIDTWPEPRKEDINVCDKISASTKLYMEKGLAYPVRLVWYNGGGDGQFNAQFIDPSGTTHTDWNGYVWQYDACTDCDYK
# What was measured:
# Experiment in all cases: glycan array binding signal (z-score within array); higher = stronger binding
# Conditions in all cases: glycan notation: IUPAC condensed, linker removed
# [1] = molecular target: Neu5Ac(a2-3)Gal(b1-4)GlcNAc(b1-6)GalNAc
# Method in brief: (§1)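 Arrays were curated from the Consortium for Functional Glycomics database, 3228 in total, and kept only where the protein sequence was available. Binding is expressed as a within-array Z-score. This score was averaged across arrays of the same protein sequence at different concentrations or buffers and across linkers, and negative values can be read as non-binding.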
# [2] = molecular target: Neu5Ac(a2-3)Gal(b1-4)GlcNAc(b1-6)[Gal(b1-3)]GalNAc
# Method in brief: as §1
# [3] = molecular target: Neu5Ac(a2-3)Gal(b1-4)GlcNAc(b1-6)[Neu5Ac(a2-3)Gal(b1-3)]GalNAc
# Method in brief: as §1
# [4] = molecular target: Neu5Ac(a2-3)Gal(b1-4)GlcNAc6S
# Method in brief: as §1
# [5] = molecular target: Neu5Ac(a2-3)Gal(b1-4)[Fuc(a1-3)]GlcNAc
# Method in brief: as §1
# [6] = molecular target: Neu5Ac(a2-3)Gal(b1-4)[Fuc(a1-3)]GlcNAc(b1-2)Man
# Method in brief: as §1
# [7] = molecular target: Neu5Ac(a2-3)Gal(b1-4)[Fuc(a1-3)]GlcNAc(b1-3)Gal
# Method in brief: as §1
# [8] = molecular target: Neu5Ac(a2-3)Gal(b1-4)[Fuc(a1-3)]GlcNAc(b1-3)Gal(b1-4)GlcNAc
# Method in brief: as §1
# [9] = molecular target: Neu5Ac(a2-3)Gal(b1-4)[Fuc(a1-3)]GlcNAc(b1-3)Gal(b1-4)[Fuc(a1-3)]GlcNAc(b1-3)Gal(b1-4)[Fuc(a1-3)]GlcNAc
# Method in brief: as §1
# [10] = molecular target: Neu5Ac(a2-3)Gal(b1-4)[Fuc(a1-3)]GlcNAc(b1-3)GalNAc
# Method in brief: as §1
# [11] = molecular target: Neu5Ac(a2-3)Gal(b1-4)[Fuc(a1-3)]GlcNAc(b1-6)[Gal(b1-3)]GalNAc
# Method in brief: as §1
# [12] = molecular target: Neu5Ac(a2-3)Gal(b1-4)[Fuc(a1-3)]GlcNAc(b1-6)[Neu5Ac(a2-3)Gal(b1-3)]GalNAc
# Method in brief: as §1
# [13] = molecular target: Neu5Ac(a2-3)Gal(b1-4)[Fuc(a1-3)]GlcNAc6S
# Method in brief: as §1
# [14] = molecular target: Neu5Ac(a2-3)Gal6S(b1-4)GlcNAc
# Method in brief: as §1
# [15] = molecular target: Neu5Ac(a2-3)Gal6S(b1-4)[Fuc(a1-3)]GlcNAc
# Method in brief: as §1
# [16] = molecular target: Neu5Ac(a2-3)GalNAc
# Method in brief: as §1
# [17] = molecular target: Neu5Ac(a2-3)GalNAc(b1-4)GlcNAc
# Method in brief: as §1
# [18] = molecular target: Neu5Ac(a2-3)[GalNAc(b1-4)]Gal(b1-4)Glc
# Method in brief: as §1
# [19] = molecular target: Neu5Ac(a2-3)[GalNAc(b1-4)]Gal(b1-4)GlcNAc
# Method in brief: as §1
# [20] = molecular target: Neu5Ac(a2-3)[GalNAc(b1-4)]Gal(b1-4)GlcNAc(b1-3)GalNAc
# Method in brief: as §1
# [21] = molecular target: Neu5Ac(a2-3)[Neu5Ac(a2-6)]GalNAc
# Method in brief: as §1
# [22] = molecular target: Neu5Ac(a2-6)Gal
# Method in brief: as §1
# [23] = molecular target: Neu5Ac(a2-6)Gal(b1-3)GlcNAc(b1-3)[Gal(b1-4)GlcNAc(b1-6)]Gal(b1-4)Glc
# Method in brief: as §1
# [24] = molecular target: Neu5Ac(a2-6)Gal(b1-4)Glc
# Method in brief: as §1
# [25] = molecular target: Neu5Ac(a2-6)Gal(b1-4)GlcNAc
# Method in brief: as §1
# [26] = molecular target: Neu5Ac(a2-6)Gal(b1-4)GlcNAc(b1-2)Man
# Method in brief: as §1
# [27] = molecular target: Neu5Ac(a2-6)Gal(b1-4)GlcNAc(b1-2)Man(a1-3)Man(b1-4)GlcNAc(b1-4)GlcNAc
# Method in brief: as §1
# [28] = molecular target: Neu5Ac(a2-6)Gal(b1-4)GlcNAc(b1-2)Man(a1-3)[Gal(b1-4)GlcNAc(b1-2)Man(a1-6)]Man(b1-4)GlcNAc(b1-4)GlcNAc
# Method in brief: as §1
# [29] = molecular target: Neu5Ac(a2-6)Gal(b1-4)GlcNAc(b1-2)Man(a1-3)[GlcNAc(b1-4)][Neu5Ac(a2-6)Gal(b1-4)GlcNAc(b1-2)Man(a1-6)]Man(b1-4)GlcNAc(b1-4)GlcNAc
# Method in brief: as §1
# [30] = molecular target: Neu5Ac(a2-6)Gal(b1-4)GlcNAc(b1-2)Man(a1-3)[Man(a1-6)]Man(b1-4)GlcNAc(b1-4)GlcNAc
# Method in brief: as §1
# [31] = molecular target: Neu5Ac(a2-6)Gal(b1-4)GlcNAc(b1-2)Man(a1-3)[Neu5Ac(a2-3)Gal(b1-4)GlcNAc(b1-2)Man(a1-6)]Man(b1-4)GlcNAc(b1-4)GlcNAc
# Method in brief: as §1
# [32] = molecular target: Neu5Ac(a2-6)Gal(b1-4)GlcNAc(b1-2)Man(a1-3)[Neu5Ac(a2-6)Gal(b1-4)GlcNAc(b1-2)Man(a1-6)]Man(b1-4)GlcNAc(b1-4)GlcNAc
# Method in brief: as §1
# [33] = molecular target: Neu5Ac(a2-6)Gal(b1-4)GlcNAc(b1-2)Man(a1-3)[Neu5Ac(a2-6)Gal(b1-4)GlcNAc(b1-2)Man(a1-6)]Man(b1-4)GlcNAc(b1-4)[Fuc(a1-6)]GlcNAc
# Method in brief: as §1
# [34] = molecular target: Neu5Ac(a2-6)Gal(b1-4)GlcNAc(b1-2)Man(a1-6)Man(b1-4)GlcNAc(b1-4)GlcNAc
# Method in brief: as §1
# [35] = molecular target: Neu5Ac(a2-6)Gal(b1-4)GlcNAc(b1-2)Man(a1-6)[Gal(b1-4)GlcNAc(b1-2)Man(a1-3)]Man(b1-4)GlcNAc(b1-4)GlcNAc
# Method in brief: as §1
# [36] = molecular target: Neu5Ac(a2-6)Gal(b1-4)GlcNAc(b1-2)Man(a1-6)[GlcNAc(b1-2)Man(a1-3)]Man(b1-4)GlcNAc(b1-4)GlcNAc
# Method in brief: as §1
# [37] = molecular target: Neu5Ac(a2-6)Gal(b1-4)GlcNAc(b1-2)Man(a1-6)[Man(a1-3)]Man(b1-4)GlcNAc(b1-4)GlcNAc
# Method in brief: as §1
# [38] = molecular target: Neu5Ac(a2-6)Gal(b1-4)GlcNAc(b1-2)[Neu5Ac(a2-6)Gal(b1-4)GlcNAc(b1-4)]Man(a1-3)[GlcNAc(b1-4)][Neu5Ac(a2-6)Gal(b1-4)GlcNAc(b1-2)[Neu5Ac(a2-6)Gal(b1-4)GlcNAc(b1-6)]Man(a1-6)]Man(b1-4)GlcNAc(b1-4)GlcNAc
# Method in brief: as §1
# [39] = molecular target: Neu5Ac(a2-6)Gal(b1-4)GlcNAc(b1-2)[Neu5Ac(a2-6)Gal(b1-4)GlcNAc(b1-4)]Man(a1-3)[GlcNAc(b1-4)][Neu5Ac(a2-6)Gal(b1-4)GlcNAc(b1-4)Man(a1-6)]Man(b1-4)GlcNAc(b1-4)GlcNAc
# Method in brief: as §1
# [40] = molecular target: Neu5Ac(a2-6)Gal(b1-4)GlcNAc(b1-2)[Neu5Ac(a2-6)Gal(b1-4)GlcNAc(b1-6)]Man(a1-6)[Neu5Ac(a2-6)Gal(b1-4)GlcNAc(b1-2)Man(a1-3)][GlcNAc(b1-4)]Man(b1-4)GlcNAc(b1-4)GlcNAc
# Method in brief: as §1
# [41] = molecular target: Neu5Ac(a2-6)Gal(b1-4)GlcNAc(b1-3)Gal(b1-3)GlcNAc
# Method in brief: as §1
# [42] = molecular target: Neu5Ac(a2-6)Gal(b1-4)GlcNAc(b1-3)Gal(b1-4)GlcNAc
# Method in brief: as §1
# [43] = molecular target: Neu5Ac(a2-6)Gal(b1-4)GlcNAc(b1-3)Gal(b1-4)GlcNAc(b1-2)Man(a1-3)[Neu5Ac(a2-6)Gal(b1-4)GlcNAc(b1-3)Gal(b1-4)GlcNAc(b1-2)Man(a1-6)]GalNAc
# Method in brief: as §1
# [44] = molecular target: Neu5Ac(a2-6)Gal(b1-4)GlcNAc(b1-3)Gal(b1-4)GlcNAc(b1-3)Gal(b1-4)GlcNAc
# Method in brief: as §1
# [45] = molecular target: Neu5Ac(a2-6)Gal(b1-4)GlcNAc(b1-3)Gal(b1-4)GlcNAc(b1-3)Gal(b1-4)GlcNAc(b1-2)Man(a1-3)[Neu5Ac(a2-6)Gal(b1-4)GlcNAc(b1-3)Gal(b1-4)GlcNAc(b1-3)Gal(b1-4)GlcNAc(b1-2)Man(a1-6)]GalNAc
# Method in brief: as §1
binder,measurement,setting,value
B1,glycan array binding signal (z-score),[1],0.53
same,glycan array binding signal (z-score),[2],2.67
same,glycan array binding signal (z-score),[3],0.065
same,glycan array binding signal (z-score),[4],-0.548
same,glycan array binding signal (z-score),[5],-0.312
same,glycan array binding signal (z-score),[6],-0.225
same,glycan array binding signal (z-score),[7],-0.253
same,glycan array binding signal (z-score),[8],2.78
same,glycan array binding signal (z-score),[9],-0.179
same,glycan array binding signal (z-score),[10],1.46
same,glycan array binding signal (z-score),[11],-0.222
same,glycan array binding signal (z-score),[12],1.32
same,glycan array binding signal (z-score),[13],1.61
same,glycan array binding signal (z-score),[14],-0.567
same,glycan array binding signal (z-score),[15],-0.396
same,glycan array binding signal (z-score),[16],0.114
same,glycan array binding signal (z-score),[17],-0.218
same,glycan array binding signal (z-score),[18],-0.669
same,glycan array binding signal (z-score),[19],-0.647
same,glycan array binding signal (z-score),[20],0.861
same,glycan array binding signal (z-score),[21],0.294
same,glycan array binding signal (z-score),[22],-0.673
same,glycan array binding signal (z-score),[23],-0.358
same,glycan array binding signal (z-score),[24],-0.465
same,glycan array binding signal (z-score),[25],-0.575
same,glycan array binding signal (z-score),[26],-0.389
same,glycan array binding signal (z-score),[27],0.056
same,glycan array binding signal (z-score),[28],0.113
same,glycan array binding signal (z-score),[29],0.446
same,glycan array binding signal (z-score),[30],-0.219
same,glycan array binding signal (z-score),[31],0.761
same,glycan array binding signal (z-score),[32],1.85
same,glycan array binding signal (z-score),[33],2.8
same,glycan array binding signal (z-score),[34],0.24
same,glycan array binding signal (z-score),[35],-0.261
same,glycan array binding signal (z-score),[36],0.357
same,glycan array binding signal (z-score),[37],0.213
same,glycan array binding signal (z-score),[38],-0.122
same,glycan array binding signal (z-score),[39],-0.266
same,glycan array binding signal (z-score),[40],-0.352
same,glycan array binding signal (z-score),[41],-0.183
same,glycan array binding signal (z-score),[42],-0.084
same,glycan array binding signal (z-score),[43],1.26
same,glycan array binding signal (z-score),[44],-0.128
same,glycan array binding signal (z-score),[45],8.45

# Rewritten with bars between the fields: entries from further up.
binder | measurement | setting | value
B1 | glycan array binding signal (z-score) | [5] | -0.312
same | glycan array binding signal (z-score) | [10] | 1.46
same | glycan array binding signal (z-score) | [11] | -0.222
same | glycan array binding signal (z-score) | [14] | -0.567
same | glycan array binding signal (z-score) | [18] | -0.669
same | glycan array binding signal (z-score) | [25] | -0.575
same | glycan array binding signal (z-score) | [37] | 0.213
same | glycan array binding signal (z-score) | [41] | -0.183
same | glycan array binding signal (z-score) | [45] | 8.45
